No constants are given. Whether binding was seen depends on the method and setting. Binding seen in cells or lysates may run through a third protein. Some entries that bind do so weakly or less than the wild type. Tags and fused reporters may be left off the sequences shown.

Assay [1] concerns the target T1, HA-tagged Snf1 (yeast (endogenous in W303-1a)) (UniProt P06782).
T1 sequence: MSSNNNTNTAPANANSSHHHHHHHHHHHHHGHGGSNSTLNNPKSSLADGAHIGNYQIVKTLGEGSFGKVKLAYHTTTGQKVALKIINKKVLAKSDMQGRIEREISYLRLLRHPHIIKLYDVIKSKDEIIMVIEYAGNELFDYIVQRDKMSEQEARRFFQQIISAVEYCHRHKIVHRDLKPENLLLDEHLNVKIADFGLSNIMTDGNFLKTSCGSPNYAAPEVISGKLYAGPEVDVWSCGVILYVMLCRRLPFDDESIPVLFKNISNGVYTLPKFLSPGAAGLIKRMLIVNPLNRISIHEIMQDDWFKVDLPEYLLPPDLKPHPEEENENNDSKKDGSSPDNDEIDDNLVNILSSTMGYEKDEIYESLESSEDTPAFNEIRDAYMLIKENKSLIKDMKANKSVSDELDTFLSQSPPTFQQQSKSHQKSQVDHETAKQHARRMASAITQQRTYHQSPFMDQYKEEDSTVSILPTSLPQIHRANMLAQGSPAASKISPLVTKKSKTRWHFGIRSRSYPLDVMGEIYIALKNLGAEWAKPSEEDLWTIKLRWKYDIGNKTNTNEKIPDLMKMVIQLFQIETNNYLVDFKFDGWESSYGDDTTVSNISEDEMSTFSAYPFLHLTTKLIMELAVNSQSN
The assay is described as follows: co-IP; HA–Snf1 precipitated from yeast whole-cell extract with anti-HA antibody (12CA5) and protein G matrix; lysis buffer 45 mM Hepes-KOH pH 7.2, 150 mM NaCl, 1 mM EDTA, 10% glycerol, 1% Triton X-100; beads washed 10 times; Mrc1–TAP detected by western blotting with anti-PAP. On the technique in general: A western blot detects proteins with antibodies after separation by electrophoresis.

Assay [2] has as its target T2, TAP-tagged Mrc1 (yeast (endogenous in W303-1a)) (UniProt P25588).
T2 sequence: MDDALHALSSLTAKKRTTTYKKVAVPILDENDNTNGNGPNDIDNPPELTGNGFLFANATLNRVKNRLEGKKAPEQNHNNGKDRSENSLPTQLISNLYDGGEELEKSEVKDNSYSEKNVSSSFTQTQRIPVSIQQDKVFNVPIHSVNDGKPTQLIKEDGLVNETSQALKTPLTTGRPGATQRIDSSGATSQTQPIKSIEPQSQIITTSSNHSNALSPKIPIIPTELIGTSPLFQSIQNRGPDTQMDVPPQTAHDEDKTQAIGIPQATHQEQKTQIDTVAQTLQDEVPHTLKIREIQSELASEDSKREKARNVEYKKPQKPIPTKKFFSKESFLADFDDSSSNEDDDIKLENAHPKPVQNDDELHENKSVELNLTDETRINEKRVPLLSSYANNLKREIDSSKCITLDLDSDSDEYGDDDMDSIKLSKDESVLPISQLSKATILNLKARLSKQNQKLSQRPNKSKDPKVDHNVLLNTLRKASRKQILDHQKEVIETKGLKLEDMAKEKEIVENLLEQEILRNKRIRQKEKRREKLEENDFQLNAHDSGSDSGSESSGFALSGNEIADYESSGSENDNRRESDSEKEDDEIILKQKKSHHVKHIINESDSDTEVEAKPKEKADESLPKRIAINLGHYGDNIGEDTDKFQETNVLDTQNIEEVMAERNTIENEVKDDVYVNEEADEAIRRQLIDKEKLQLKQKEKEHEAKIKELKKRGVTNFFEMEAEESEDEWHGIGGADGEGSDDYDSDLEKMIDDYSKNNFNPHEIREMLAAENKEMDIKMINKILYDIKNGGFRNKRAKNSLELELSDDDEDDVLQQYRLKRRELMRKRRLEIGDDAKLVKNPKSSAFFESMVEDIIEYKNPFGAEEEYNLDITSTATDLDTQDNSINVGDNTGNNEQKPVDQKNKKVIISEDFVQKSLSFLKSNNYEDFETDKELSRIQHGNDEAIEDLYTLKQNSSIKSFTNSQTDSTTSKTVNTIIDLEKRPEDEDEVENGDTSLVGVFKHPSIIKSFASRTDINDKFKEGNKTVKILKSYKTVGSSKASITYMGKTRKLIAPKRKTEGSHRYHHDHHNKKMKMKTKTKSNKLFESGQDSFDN
The assay can be described thus: co-IP; Mrc1–TAP precipitated from yeast whole-cell extract with rabbit IgG–agarose overnight at 4 °C; lysis buffer 45 mM Hepes-KOH pH 7.2, 150 mM NaCl, 1 mM EDTA, 10% glycerol, 1% Triton X-100; beads washed 10 times; partner detected by western blotting.

B1: TAP-tagged Mrc1 (protein, UniProt P25588 1-1096)
chain: T2 sequence
For the molecule B1, the binding entry in assay [1] is recorded as “binds”.

B2: HA-tagged Psk1 (enzyme, UniProt P31374 1-1356)
chain: MPYIGASNLSEHSFVNLKEKHAITHKGTSSSVASLQTPPSPDQENHIDNELENYDTSLSDVSTPNKKEGDEFEQSLRDTFASFRKTKPPPPLDFEQPRLPSTASSSVDSTVSSPLTDEDIKELEFLPNESTHSYSYNPLSPNSLAVRLRILKRSLEIIIQNPSMLLEPTPDDLPPLKEFAGRRSSLPRTSASANHLMNRNKSQIWNTTSATLNAFVNNTSSSSAASSALSNKKPGTPVFPNLDPTHSQTFHRANSLAYLPSILPEQDPLLKHNNSLFRGDYGNNISPERPSFRQPFKDQTSNLRNSSLLNERAYQEDETFLPHHGPSMDLLNEQRANLKSLLNLLNETLEKNTSERASDLHMISLFNLNKLMLGDPKKNNSERDKRTEKLKKILLDSLAEPFFEHYNFIGDNPIADTDELKEEIDEFTGSGDTTAITDIRPQQDYGRILRTFTSTKNSAPQAIFTCSQEDPWQFRAANDLACLVFGISQNAIRALTLMDLIHTDSRNFVLHKLLSTEGQEMVFTGEIIGIVQPETLSSSKVVWASFWAKRKNGLLVCVFEKVPCDYVDVLLNLDDFGAENIVDKCELLSDGPTLSSSSTLSLPKMASSPTGSKLEYSLERKILEKSYTKPTSTENRNGDENQLDGDSHSEPSLSSSPVRSKKSVKFANDIKDVKSISQSLAKLMDDVRNGVVFDPDDDLLPMPIKVCNHINETRYFTLNHLSYNIPCAVSSTVLEDELKLKIHSLPYQAGLFIVDSHTLDIVSSNKSILKNMFGYHFAELVGKSITEIIPSFPKFLQFINDKYPALDITLHKNKGLVLTEHFFRKIQAEIMGDRKSFYTSVGIDGLHRDGCEIKIDFQLRVMNSKVILLWVTHSRDVVFEEYNTNPSQLKMLKESELSLMSSASSSASSSKKSSSRISTGTLKDMSNLSTYEDLAHRTNKLKYEIGDDSRAHSQSTLSEQEQVPLENDKDSGEMMLADPEMKHKLELARIYSRDKSQFVKEGNFKVDENLIISKISLSPSTESLADSKSSGKGLSPLEEEKLIDENATENGLAGSPKDEDGIIMTNKRGNQPVSTFLRTPEKNIGAQKHVKKFSDFVSLQKMGEGAYGKVNLCIHKKNRYIVVIKMIFKERILVDTWVRDRKLGTIPSEIQIMATLNKKPHENILRLLDFFEDDDYYYIETPVHGETGCIDLFDLIEFKTNMTEFEAKLIFKQVVAGIKHLHDQGIVHRDIKDENVIVDSKGFVKIIDFGSAAYVKSGPFDVFVGTIDYAAPEVLGGNPYEGQPQDIWAIGILLYTVVFKENPFYNIDEILEGDLKFNNAEEVSEDCIELIKSILNRCVPKRPTIDDINNDKWLVI
For B2, the binding result in assay [2] is “binds”.

B3: Myc-tagged Mpk1 (enzyme, UniProt Q00772 1-484)
chain: MADKIERHTFKVFNQDFSVDKRFQLIKEIGHGAYGIVCSARFAEAAEDTTVAIKKVTNVFSKTLLCKRSLRELKLLRHFRGHKNITCLYDMDIVFYPDGSINGLYLYEELMECDMHQIIKSGQPLTDAHYQSFTYQILCGLKYIHSADVLHRDLKPGNLLVNADCQLKICDFGLARGYSENPVENSQFLTEYVATRWYRAPEIMLSYQGYTKAIDVWSAGCILAEFLGGKPIFKGKDYVNQLNQILQVLGTPPDETLRRIGSKNVQDYIHQLGFIPKVPFVNLYPNANSQALDLLEQMLAFDPQKRITVDEALEHPYLSIWHDPADEPVCSEKFEFSFESVNDMEDLKQMVIQEVQDFRLFVRQPLLEEQRQLQLQQQQQQQQQQQQQQQQPSDVDNGNAAASEENYPKQMATSNSVAPQQESFGIHSQNLPRHDADFPPRPQESMMEMRPATGNTADIPPQNDNGTLLDLEKELEFGLDRKYF
Consider B3, for which the binding result in assay [2] is recorded as “binds”.

The values above are taken from PMC5785523.
